The match of structure and compound is tentative. Where only a bound is given, the exact number is not on record here.

Experiment [1] concerns Kuramochi cells labeled with mApple-H2B. Kind of experiment: IncuCyte cell proliferation assay. To be noted: read-out: IncuCyte Kuramochi RB-WT: IC50, 72 hours, cell count normalized to DMSO. The method, then: Example A3: IncuCyte® Cell Proliferation Assay
IncuCyte® assay was used to measure the effect of disclosed compounds on cell proliferation. Fluorescent microscopy images of cells were taken immediately after compound treatment and 72 hours later. Image analysis software was used to obtain cell counts as a function of compound concentration. Kuramochi cells labeled with mApple-H2B were seeded on 384-well assay-ready plates. Plates were placed in an IncuCyte® (Sartorius) and scanned at 0 and 72 hours. IncuCyte® software was used to count the number of fluorescent nuclei in each well. The fold change in cell count from 0 to 72 hours in wells treated with increasing compounds concentrations (10 pts, 1/2 log dilution, 20 μM top concentration) was normalized to DMSO control wells. The normalized cell counts were fit with dose response curves and a GI50 was calculated.

Experiment [2] addresses CDK2/Cyclin E1 (Homo sapiens, UniProt P24941). Kind of experiment: CDK2/Cyclin E1 Caliper LabChip EZ Reader mobility shift assay. As to conditions: read-out: Caliper Assay (CDK2/CCNE1): IC50; 2.5 nM CDK2/Cyclin E1, 100 μM ATP, 1.5 μM fluorescent peptide, 30 min preincubation. The method, then: Example A1: CDK2/Cyclin E1 Caliper Assay
Inhibition of CDK2/Cyclin E1 activity in the presence of compounds of the present disclosure was evaluated using a Caliper LabChip® EZ Reader mobility shift assay. In the assay, CDK2/Cyclin E1 (Eurofins, 14-475) catalyzed the phosphorylation of a fluorescently tagged peptide 5-FAM-QSPKKG-CONH2 (PerkinElmer, FL Peptide 18) which induced a difference in capillary electrophoresis mobility. The peptide substrate and product were measured, and the conversion ratio was used to determine the inhibition (as % activity and IC50 values) of CDK2/Cyclin E1. Reactions contained 50 mM HEPES pH 7.5, 10 mM MgCl2, 1 mM EDTA, 2 mM DTT, 0.01% Brij35, 0.5 mg/mL BSA, 0.1% DMSO, 2.5 nM CDK2/Cyclin E1, 100 μM ATP, and 1.5 μM fluorescent peptide substrate.
Dose titrations of inhibitors in 100% DMSO were combined with 3.25 nM CDK2/Cyclin E1 and 130 μM of ATP in reaction buffer. The mixtures were incubated for 30 minutes before the addition of fluorescent peptide substrate to initiate the kinase reaction. The final conditions were 2.5 nM CDK2/Cyclin E1, 100 μM ATP, and 1.5 μM fluorescent peptide. The reactions were stopped after 100 minutes with the addition of EDTA (400 mM final EDTA concentration). The stopped reactions were analyzed on a Caliper LabChip® EZ Reader II. […]

With `Cc1ccc(CNC(=O)C2CN(C(=O)c3cnn(Cc4ccccc4)c3)CC23CN(C(=O)[C@H]2CC2(C)C)C3)nn1` (some centres unmarked), the IC50 in experiment [1] is over 20 µM; in experiment [2] it was 1 to 10 µM.

The record behind these values is patent US20260152494A1, “CDK2 INHIBITORS AND METHODS OF USING THE SAME” (Cedilla Therapeutics, Inc., priority 2022, published 2026).
